Measurements: PubChem BioAssay (EPA / NIEHS)
Inconclusive means that the source gave no clear call. Such entries were picked first, then a sample of the others. For some of these results: A potency beside an inconclusive call is a rough fit, not a confirmed value. The source made the active and inactive calls. Rule for the calls: active = hit-call score of the fitted dose curve at least 0.9, where 1 is the maximum; inconclusive = response in the unintended direction; inactive = score below 0.9.

Protein sequences, listed by entry. Tags and fused reporters are not part of them. Lines headed by an entry give the natural chain unless they say otherwise; changes in a name come on top.
UniProt P41143, whole entry, looked up: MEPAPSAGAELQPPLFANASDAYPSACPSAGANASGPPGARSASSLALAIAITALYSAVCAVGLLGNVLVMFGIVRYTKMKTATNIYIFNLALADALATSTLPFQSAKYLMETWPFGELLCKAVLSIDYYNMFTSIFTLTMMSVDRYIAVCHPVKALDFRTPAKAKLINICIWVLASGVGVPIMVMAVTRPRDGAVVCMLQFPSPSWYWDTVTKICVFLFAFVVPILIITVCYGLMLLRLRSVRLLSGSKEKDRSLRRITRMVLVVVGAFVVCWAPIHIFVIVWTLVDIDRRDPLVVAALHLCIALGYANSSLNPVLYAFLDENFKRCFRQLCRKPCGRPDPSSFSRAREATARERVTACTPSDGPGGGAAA
UniProt P43140: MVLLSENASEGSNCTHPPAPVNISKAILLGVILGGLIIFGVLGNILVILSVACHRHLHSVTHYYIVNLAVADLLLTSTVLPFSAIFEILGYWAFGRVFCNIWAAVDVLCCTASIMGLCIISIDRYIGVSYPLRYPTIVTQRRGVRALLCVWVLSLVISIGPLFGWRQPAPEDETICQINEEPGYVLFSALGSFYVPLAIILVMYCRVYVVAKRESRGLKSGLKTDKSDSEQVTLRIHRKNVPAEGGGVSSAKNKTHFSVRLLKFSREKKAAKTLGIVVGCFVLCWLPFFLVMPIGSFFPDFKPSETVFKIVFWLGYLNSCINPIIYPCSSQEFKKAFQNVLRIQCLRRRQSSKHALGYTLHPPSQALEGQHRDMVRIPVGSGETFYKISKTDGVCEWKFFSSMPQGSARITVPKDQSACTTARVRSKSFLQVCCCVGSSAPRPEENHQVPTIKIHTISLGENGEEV
UniProt P35372, whole entry, looked up: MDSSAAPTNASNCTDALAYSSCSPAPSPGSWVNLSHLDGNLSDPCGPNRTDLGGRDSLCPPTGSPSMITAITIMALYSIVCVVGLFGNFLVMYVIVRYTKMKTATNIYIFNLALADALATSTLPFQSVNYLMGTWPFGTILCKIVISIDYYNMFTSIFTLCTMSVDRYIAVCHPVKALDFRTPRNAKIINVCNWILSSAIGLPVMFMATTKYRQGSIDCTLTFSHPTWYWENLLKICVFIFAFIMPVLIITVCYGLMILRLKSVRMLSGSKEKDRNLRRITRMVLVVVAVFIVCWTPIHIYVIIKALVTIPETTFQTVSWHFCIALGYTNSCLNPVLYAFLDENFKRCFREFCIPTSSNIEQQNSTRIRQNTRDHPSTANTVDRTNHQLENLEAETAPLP
UniProt O70528: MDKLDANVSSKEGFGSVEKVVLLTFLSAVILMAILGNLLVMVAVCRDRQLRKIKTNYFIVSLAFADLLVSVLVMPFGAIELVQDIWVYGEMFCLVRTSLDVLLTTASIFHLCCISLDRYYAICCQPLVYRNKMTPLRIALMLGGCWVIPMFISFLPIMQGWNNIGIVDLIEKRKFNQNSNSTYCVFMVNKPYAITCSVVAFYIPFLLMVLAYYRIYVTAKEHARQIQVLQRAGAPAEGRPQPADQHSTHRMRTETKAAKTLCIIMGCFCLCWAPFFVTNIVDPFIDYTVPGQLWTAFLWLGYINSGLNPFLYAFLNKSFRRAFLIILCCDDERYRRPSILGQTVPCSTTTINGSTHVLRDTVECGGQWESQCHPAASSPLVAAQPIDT
UniProt O70526, whole entry, looked up: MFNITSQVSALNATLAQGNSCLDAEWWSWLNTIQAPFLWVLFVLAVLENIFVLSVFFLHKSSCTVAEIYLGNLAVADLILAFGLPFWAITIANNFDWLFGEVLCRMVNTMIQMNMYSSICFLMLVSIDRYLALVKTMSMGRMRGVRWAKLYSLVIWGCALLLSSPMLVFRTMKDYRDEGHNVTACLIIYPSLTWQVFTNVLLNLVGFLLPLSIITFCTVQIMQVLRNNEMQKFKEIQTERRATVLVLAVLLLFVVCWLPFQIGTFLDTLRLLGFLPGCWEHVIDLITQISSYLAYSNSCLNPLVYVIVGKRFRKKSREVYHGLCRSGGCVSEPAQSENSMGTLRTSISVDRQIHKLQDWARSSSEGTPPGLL

Experiments:
[1] = molecular target: human Opioid Receptor Delta 1 (Opiate D1), OPRD1 (gene 4985) (UniProt P41143); test: NVS_GPCR_hOpiate_D1: NovaScreen (NVS) G Protein-Coupled Receptor Assay for human Opioid Receptor Delta 1 (Opiate D1) (AID 2283280)
Procedure, shortened: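 Radioligand displacement on membranes from CHO cells expressing the receptor, read by filter scintillation counting 1 h after dosing. Duplicate single-point screen at 25 uM, then concentration series for actives; loss of signal versus DMSO.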

[2] = molecular target: rat Adrenergic, Alpha 1, Non-selective Receptor (Adra1), Adra1a (gene 29412) (UniProt P43140); test: NVS_GPCR_rAdra1_NonSelective: NovaScreen (NVS) G Protein-Coupled Receptor Assay for rat Adrenergic, Alpha 1, Non-selective Receptor (Adra1) (AID 2283289)
Procedure, shortened: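 Rat forebrain membranes; radioligand displacement read by filter-based scintillation counting 1 h after dosing. Primary screen in duplicate at 25 uM; hits (e.g. ≥30% inhibition) rerun as concentration–response to 50 uM max. Fitted versus DMSO.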

[3] = molecular target: human Opioid Receptor Mu (Opiate Mu), OPRM1 (gene 4988) (UniProt P35372); test: NVS_GPCR_hOpiate_mu: NovaScreen (NVS) G Protein-Coupled Receptor Assay for human Opioid Receptor Mu (Opiate Mu) (AID 2283290);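 note: hits lower bound tracer signal versus DMSO meaning displacement of the ligand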
Procedure, shortened: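 Primary screen in duplicate at 25 uM, with actives followed in concentration series. CHO-derived receptor membranes, cell-free; bound radioligand read by scintillation counting after filtration at 2.5 h, decrease scored against DMSO.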

[4] = molecular target: guinea pig Serotonin, 5-Hydroxytryptamine Receptor 4 (5HT4), HTR4 (gene 100135548) (UniProt O70528); test: NVS_GPCR_g5HT4: NovaScreen (NVS) G Protein-Coupled Receptor Assay for guinea pig Serotonin, 5-Hydroxytryptamine Receptor 4 (5HT4) (AID 2283294)
Procedure, shortened: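 Guinea pig striatal membranes; radioligand competitive displacement, filtration and scintillation counting after 1 h. Primary screen in duplicate at 25 uM; actives then tested in concentration series; loss of binding signal fitted relative to DMSO.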

[5] = molecular target: rat Adrenergic, Alpha 1A Receptor (Adra1A), Adra1a (gene 29412) (UniProt P43140); test: NVS_GPCR_rAdra1A: NovaScreen (NVS) G Protein-Coupled Receptor Assay for rat Adrenergic, Alpha 1A Receptor (Adra1A) (AID 2283296)
Procedure, shortened: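 Rat cortical membranes pretreated with chlorethyl clonidine; competitive radioligand displacement, 1 h. Filter-based scintillation counting. Primary screen in duplicate at 25 uM, actives followed in concentration series.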

[6] = molecular target: guinea pig Bradykinin Receptor B2 (BK2), BDKRB2 (gene 100135486) (UniProt O70526); test: NVS_GPCR_gBK2: NovaScreen (NVS) G Protein-Coupled Receptor Assay for guinea pig Bradykinin Receptor B2 (BK2) (AID 2283292)
Procedure, shortened: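 Radioligand displacement on guinea pig ileum membranes for 1 h, read by filter-based scintillation counting; loss of signal relative to DMSO. Compounds were screened in duplicate at 25 uM, and those passing the threshold were retested in concentration-response up to 50 uM.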

CCc1c(C(=O)NN2CCCCC2)nn(-c2ccc(Cl)cc2Cl)c1-c1ccc(Br)cc1
outcome [1]: inactive

O=c1[nH]c2ccc(S(=O)CCN3CCC(Cc4ccc(F)cc4)CC3)cc2o1 (stereo not given)
AC50 [2]: active: 1.07 µM

CCCCCCCCC(=O)O
outcome [2]: inactive

CCCCCCCCn1sc(Cl)c(Cl)c1=O
AC50 [3]: active: 8.39 µM

N=C(N)c1ccc(OCCCCCOc2ccc(C(=N)N)cc2)cc1
AC50 [4]: active: 2.4 µM

Nc1ccc(Nc2ccccc2)cc1
AC50 [4]: active: 31.6 µM

COCCO
AC50 [5]: inconclusive: 25 µM

c1ccc(C(O[C@@H]2CCCN(CCc3ccc4c(c3)OCO4)C2)c2ccccc2)cc1
outcome [6]: inactive

CN(C)c1ccc(C(=C2C=CC(=[N+](C)C)C=C2)c2ccc(N(C)C)cc2)cc1
AC50 [6]: active: 12.3 µM

NC(=Nc1ccccc1)Nc1ccccc1
AC50 [5]: active: 8.43 µM
